Results on 1 molecule are retold here after patent US20100260707A1.

Amino acid sequences for entries named in this document (tags omitted). A change or cut given only in a name is not applied to a line headed by its entry. Chains listed by the source or under a name are the forms on record and can include a tag or linker.
ED-A isoform of human fibronectin (A-FN) in human arthritic specimens (P02751, form named): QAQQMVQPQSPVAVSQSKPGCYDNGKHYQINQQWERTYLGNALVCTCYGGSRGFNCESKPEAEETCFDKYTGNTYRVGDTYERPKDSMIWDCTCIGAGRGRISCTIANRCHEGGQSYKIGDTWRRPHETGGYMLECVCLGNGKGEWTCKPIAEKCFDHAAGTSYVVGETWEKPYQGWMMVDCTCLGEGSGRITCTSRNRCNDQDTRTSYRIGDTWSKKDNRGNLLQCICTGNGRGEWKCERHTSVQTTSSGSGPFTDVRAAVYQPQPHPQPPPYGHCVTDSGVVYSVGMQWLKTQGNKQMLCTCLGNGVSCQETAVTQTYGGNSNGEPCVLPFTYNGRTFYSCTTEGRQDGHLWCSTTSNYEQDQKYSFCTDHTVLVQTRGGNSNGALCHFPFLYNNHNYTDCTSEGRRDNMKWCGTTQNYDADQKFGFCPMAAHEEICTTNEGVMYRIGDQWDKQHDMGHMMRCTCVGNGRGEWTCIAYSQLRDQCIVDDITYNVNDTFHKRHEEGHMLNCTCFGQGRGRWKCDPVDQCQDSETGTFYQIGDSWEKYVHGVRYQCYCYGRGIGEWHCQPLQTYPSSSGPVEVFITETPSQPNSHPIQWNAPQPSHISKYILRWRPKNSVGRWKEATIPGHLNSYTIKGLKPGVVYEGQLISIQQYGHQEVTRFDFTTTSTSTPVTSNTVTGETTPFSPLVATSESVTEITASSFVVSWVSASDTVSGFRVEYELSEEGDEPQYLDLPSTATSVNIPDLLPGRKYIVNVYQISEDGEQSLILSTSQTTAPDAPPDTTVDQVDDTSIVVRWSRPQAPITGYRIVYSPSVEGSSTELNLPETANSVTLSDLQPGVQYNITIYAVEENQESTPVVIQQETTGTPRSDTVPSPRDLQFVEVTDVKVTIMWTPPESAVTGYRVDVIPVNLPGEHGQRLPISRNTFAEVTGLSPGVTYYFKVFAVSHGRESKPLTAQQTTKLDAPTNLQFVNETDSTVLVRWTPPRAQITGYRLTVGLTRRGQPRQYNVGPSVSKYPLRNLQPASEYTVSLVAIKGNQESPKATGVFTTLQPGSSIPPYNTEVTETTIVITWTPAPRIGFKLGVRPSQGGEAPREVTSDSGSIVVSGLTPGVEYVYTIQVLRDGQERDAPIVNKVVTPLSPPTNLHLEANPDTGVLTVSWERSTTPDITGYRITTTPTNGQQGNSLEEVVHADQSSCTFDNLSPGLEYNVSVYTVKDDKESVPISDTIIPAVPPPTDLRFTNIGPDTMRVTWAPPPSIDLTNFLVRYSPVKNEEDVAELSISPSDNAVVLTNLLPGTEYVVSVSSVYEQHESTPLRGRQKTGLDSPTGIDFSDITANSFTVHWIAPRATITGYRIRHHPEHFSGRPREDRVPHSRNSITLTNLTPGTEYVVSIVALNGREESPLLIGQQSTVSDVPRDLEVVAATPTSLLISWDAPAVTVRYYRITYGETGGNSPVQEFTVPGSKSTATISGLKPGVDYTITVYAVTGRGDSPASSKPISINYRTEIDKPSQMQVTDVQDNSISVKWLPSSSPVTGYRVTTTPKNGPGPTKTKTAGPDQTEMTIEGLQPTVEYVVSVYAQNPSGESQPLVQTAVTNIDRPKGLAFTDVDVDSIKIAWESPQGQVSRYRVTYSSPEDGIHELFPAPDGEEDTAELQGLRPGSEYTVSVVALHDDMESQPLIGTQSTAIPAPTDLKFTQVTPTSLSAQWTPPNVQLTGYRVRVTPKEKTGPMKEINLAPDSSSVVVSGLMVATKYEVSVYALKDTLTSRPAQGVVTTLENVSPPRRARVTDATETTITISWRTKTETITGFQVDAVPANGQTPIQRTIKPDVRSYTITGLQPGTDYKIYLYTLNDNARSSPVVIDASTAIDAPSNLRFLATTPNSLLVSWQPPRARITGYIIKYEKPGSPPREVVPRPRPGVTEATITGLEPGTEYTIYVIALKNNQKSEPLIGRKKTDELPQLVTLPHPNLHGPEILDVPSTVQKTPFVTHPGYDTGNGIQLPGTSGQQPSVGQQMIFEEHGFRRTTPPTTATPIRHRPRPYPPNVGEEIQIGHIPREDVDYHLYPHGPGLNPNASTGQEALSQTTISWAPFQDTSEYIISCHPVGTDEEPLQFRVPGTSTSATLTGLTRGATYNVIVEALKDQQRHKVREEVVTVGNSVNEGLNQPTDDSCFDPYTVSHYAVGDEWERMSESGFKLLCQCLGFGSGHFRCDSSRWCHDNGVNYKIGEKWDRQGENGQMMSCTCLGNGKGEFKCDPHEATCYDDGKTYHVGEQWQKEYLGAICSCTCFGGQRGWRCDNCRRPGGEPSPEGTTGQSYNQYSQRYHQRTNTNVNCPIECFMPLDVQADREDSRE

No constants are given. Whether binding was seen depends on the method and setting. Some binding calls cover weakened binding; strength is not graded here.

Assay [1] concerns the target ED-A isoform of human fibronectin (A-FN) in human arthritic specimens (human) (UniProt P02751). As to the kind of experiment: immunofluorescence on frozen sections of human arthritic specimens, myc-tagged scFv at 10 ug/ml.
Assay [2] shares this target. As to the kind of experiment: immunohistochemistry on frozen sections of human arthritic specimens, myc-tagged scFv at 10 ug/ml.

B1: anti-ED-A antibody F8 (scFv)
scFv: EVQLVESGGGLVQPGGSLRLSCAASGFTFSLFTMSWVRQAPGKGLEWVSAISGSGGSTYYADSVKGRFTISRDNSKNTLYLQMNSLRAEDTAVYYCAKSTHLYLFDYWGQGTLVTVSSGGGGSGGGGSGGGGSGGGGSEIVLTQSPGTLSLSPGEKATLSCRASQSVSMPFLAWYQQKPGQAPRLLIYGASSRATGIPDRFSGSGSGTDFTLTISRLEPEDFAVYYCQQMRGRPPTFGQGTKVEIKAAAEQKLISEEDLNGAA
As for B1, the binding entry in assay [1] and in assay [2] was “binds” each time.
